Laboratory results: patent US20090280488A1
No constants are given. Whether binding was seen depends on the method and setting. Binding seen in cells or lysates may run through a third protein. Some results given as binding are weak or reduced against the parent protein; the word gives no strength. Tags and fused reporters may be left off the sequences shown. One block for each binder: values may come before it.

Amino acid sequences for entries named in this document (tags omitted). A change or cut given only in a name is not applied to a line headed by its entry. Chains listed by the source or under a name are the forms on record and can include a tag or linker.
mutant ataxin-1 (AT1-82Q) (P54253, form named): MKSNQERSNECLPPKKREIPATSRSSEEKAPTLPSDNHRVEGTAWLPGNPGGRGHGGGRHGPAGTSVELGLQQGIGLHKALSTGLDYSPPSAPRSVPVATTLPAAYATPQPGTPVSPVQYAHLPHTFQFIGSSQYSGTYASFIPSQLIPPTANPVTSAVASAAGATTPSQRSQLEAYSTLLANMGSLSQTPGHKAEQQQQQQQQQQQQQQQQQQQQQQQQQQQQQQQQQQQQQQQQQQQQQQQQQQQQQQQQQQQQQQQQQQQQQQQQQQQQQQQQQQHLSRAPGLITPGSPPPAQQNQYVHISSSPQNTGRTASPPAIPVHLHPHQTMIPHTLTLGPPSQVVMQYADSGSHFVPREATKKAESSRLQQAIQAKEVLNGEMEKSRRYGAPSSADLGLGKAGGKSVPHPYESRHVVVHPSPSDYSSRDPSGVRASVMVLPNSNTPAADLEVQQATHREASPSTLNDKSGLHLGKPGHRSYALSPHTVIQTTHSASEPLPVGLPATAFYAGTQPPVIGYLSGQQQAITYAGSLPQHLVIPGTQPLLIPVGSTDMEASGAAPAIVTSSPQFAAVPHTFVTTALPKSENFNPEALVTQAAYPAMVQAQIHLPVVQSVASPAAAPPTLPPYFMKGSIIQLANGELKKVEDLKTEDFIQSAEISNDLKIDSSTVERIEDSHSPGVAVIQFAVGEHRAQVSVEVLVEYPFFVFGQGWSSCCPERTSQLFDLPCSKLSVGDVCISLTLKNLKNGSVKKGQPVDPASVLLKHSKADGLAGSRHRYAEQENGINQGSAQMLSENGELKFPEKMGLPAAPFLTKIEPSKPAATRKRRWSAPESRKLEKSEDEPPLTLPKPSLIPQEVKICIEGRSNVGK
mutant huntingtin (Htt111Q) (P42858, form named): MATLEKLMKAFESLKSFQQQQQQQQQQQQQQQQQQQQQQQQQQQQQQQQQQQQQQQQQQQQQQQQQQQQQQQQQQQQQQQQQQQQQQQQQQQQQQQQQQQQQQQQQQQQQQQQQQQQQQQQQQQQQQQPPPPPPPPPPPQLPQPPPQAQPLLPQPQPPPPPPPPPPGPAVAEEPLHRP

Experiments:
[1] = molecular target: mutant ataxin-1 (AT1-82Q) (human) (UniProt P54253); assay: co-immunoprecipitation from HeLa cell lysate with anti-HMGB or anti-EGFP antibody, blot with CAG53b
[2] = molecular target: mutant huntingtin (Htt111Q) (human) (UniProt P42858); assay: as above
[3] = molecular target: mutant ataxin-1 (AT1-82Q) (human) (UniProt P54253); assay: GST pull-down from HeLa cell lysate, blot with CAG53b
[4] = molecular target: mutant huntingtin (Htt111Q) (human) (UniProt P42858); assay: as above

binding [2]: binds
B1: HMGB2-EGFP protein (rat HMGB2 expressed from pEGFP-N1-HMGB2) (protein, not shown: large carriers)
chain: MGKGDPNKPRGKMSSYAFFVQTCREEHKKKHPDSSVNFAEFSKKCSERWKTMSAKEKSKFEDLAKSDKARYDREMKNYVPPKGDKKGKKKDPNAPKRPPSAFFLFCSEHRPKIKSEHPGLSIGDTAKKLGEMWSEQSAKDKQPYEQKAAKLKEKYEKDIAAYRAKGKSEVGKKGPGRPTGSKKKNEPEDEEEEEEEEDDEDEEEEDEDEE
binding [1]: binds

binding [4]: binds
B2: GST-HMGB2 fusion protein (rat HMGB2 from pGEX-3X-HMGB2) (protein, not shown: a dimerising Fc or GST)
chain: B1 chain
binding [3]: binds
